Results are given in words; binding and its absence hold for the method and conditions named. Binding seen in cells or lysates may run through a third protein. Some entries that bind do so weakly or less than the wild type.

Sequences of proteins named here, by UniProt entry; tags and fusion partners are left off. A change or cut given only in a name is not applied to a line headed by its entry. Residues count along the entry.
UniProt P09874: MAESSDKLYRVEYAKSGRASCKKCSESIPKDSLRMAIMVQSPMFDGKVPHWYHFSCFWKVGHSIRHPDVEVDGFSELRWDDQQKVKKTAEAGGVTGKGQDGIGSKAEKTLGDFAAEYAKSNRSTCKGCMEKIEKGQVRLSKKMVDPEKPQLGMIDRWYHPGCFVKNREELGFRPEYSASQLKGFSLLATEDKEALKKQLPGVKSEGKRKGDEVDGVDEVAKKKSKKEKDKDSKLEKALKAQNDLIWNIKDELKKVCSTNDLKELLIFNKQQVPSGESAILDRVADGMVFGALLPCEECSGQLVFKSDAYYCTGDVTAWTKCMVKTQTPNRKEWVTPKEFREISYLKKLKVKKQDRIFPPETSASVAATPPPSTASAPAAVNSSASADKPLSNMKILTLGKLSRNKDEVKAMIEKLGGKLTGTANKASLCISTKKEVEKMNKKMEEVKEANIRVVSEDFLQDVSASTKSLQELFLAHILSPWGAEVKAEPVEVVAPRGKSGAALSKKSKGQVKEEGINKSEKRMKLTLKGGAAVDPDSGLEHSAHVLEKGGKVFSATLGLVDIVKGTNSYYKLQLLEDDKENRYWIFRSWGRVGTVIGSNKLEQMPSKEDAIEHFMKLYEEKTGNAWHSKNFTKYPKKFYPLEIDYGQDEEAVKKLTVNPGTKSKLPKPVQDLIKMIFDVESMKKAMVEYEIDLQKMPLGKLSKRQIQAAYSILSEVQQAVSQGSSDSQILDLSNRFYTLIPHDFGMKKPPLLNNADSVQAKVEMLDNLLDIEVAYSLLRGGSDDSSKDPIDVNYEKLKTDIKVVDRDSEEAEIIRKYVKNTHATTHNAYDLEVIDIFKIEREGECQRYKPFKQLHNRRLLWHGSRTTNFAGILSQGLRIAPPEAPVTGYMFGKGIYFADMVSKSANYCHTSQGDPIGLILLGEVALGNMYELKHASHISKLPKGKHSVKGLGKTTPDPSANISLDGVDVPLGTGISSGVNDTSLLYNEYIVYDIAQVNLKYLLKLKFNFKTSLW
UniProt P22607, residues 23-806: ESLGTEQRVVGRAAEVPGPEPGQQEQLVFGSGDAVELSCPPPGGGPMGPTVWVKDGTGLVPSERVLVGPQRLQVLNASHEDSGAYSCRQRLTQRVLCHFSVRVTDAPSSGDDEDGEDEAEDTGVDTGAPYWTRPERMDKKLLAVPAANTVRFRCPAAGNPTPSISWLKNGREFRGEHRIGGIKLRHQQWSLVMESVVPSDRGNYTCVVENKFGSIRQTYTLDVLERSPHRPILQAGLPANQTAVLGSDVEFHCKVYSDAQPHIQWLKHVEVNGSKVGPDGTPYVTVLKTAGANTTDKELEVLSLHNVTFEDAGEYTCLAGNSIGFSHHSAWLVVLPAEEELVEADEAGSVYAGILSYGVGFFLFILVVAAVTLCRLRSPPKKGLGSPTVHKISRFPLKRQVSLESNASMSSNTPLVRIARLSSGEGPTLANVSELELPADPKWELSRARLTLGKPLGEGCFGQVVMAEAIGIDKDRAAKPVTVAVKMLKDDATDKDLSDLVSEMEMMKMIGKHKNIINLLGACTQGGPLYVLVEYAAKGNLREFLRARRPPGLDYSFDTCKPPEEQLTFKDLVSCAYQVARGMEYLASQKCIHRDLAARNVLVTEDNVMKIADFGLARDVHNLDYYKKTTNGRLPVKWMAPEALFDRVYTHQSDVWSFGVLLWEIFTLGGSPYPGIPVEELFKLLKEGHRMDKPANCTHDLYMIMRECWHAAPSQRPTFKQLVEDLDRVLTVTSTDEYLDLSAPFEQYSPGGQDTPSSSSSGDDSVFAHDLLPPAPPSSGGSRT
UniProt P51532: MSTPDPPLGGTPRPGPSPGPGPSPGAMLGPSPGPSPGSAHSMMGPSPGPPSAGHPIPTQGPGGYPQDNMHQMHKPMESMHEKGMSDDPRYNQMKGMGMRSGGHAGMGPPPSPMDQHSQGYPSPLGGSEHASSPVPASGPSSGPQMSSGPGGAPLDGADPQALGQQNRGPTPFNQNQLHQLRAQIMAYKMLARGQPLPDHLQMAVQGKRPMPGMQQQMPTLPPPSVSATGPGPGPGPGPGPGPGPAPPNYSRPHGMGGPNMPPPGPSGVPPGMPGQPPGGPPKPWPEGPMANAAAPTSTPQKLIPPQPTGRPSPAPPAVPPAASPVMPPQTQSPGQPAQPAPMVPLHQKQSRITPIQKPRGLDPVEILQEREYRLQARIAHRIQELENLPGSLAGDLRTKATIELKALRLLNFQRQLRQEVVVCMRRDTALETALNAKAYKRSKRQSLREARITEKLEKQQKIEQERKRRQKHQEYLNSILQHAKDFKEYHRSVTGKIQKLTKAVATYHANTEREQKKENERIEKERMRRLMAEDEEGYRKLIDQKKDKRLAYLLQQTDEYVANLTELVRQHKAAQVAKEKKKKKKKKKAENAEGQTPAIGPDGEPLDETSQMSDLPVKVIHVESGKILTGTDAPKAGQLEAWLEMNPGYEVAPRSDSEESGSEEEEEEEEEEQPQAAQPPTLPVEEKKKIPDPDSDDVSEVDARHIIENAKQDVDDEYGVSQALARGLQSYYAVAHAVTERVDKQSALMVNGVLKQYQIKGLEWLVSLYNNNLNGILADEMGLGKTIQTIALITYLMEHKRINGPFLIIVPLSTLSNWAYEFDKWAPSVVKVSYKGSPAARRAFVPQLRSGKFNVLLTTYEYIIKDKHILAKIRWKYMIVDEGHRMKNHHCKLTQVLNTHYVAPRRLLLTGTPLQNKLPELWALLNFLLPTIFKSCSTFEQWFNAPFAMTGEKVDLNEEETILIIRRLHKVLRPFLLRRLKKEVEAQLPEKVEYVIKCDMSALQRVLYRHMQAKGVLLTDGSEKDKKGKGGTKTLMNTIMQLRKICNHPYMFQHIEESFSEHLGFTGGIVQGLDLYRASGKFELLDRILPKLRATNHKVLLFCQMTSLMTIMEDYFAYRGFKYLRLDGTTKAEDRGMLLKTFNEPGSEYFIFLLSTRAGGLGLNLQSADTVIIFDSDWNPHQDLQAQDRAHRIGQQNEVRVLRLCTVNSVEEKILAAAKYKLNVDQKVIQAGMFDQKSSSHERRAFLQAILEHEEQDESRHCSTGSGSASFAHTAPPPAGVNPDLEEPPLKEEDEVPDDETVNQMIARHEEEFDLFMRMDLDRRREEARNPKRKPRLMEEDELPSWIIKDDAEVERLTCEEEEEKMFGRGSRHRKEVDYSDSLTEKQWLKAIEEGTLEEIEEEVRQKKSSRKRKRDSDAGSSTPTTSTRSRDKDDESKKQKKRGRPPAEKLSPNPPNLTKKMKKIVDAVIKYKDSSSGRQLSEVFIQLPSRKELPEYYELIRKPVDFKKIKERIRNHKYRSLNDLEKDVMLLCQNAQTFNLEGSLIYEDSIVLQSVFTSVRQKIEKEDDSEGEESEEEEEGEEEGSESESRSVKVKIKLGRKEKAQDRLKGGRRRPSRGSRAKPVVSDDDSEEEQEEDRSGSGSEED

The results in this text go back to PMC12259256.

One assay has as its target HA-PARP1 wild type (UniProt P09874). Put plainly: co-IP; BR#09 cells expressing HA-PARP1 wild type or mutants, treated with 100 nM talazoparib and 0.01% MMS for 1 hour; immunoprecipitation with anti-HA or control IgG, Western blot. (A western blot detects proteins with antibodies after separation by electrophoresis.)
For the next assay, the target named is HA-PARP1 Y158D (UniProt P09874). The description is as above.
The next assay addresses HA-PARP1 Y158F (UniProt P09874). Described as above.
Assay [1] has as its target FGF receptor 3 (human (endogenous in SUM149 and SUM149-BR cells)) (UniProt P22607). Put plainly: proximity ligation; BR#09 and BR#17 cells treated with 0.01% MMS and inhibitors (100 nM talazoparib, 10 uM PD173074 or both), PLA with FGFR3 and PARP1 antibodies; nuclear PLA signals counted; signal attenuated with the combination.
Assay [2] shares this target. Put plainly: co-IP; coimmunoprecipitation of FGFR3 and PARP1 from cells; seen also in untreated cells and in parental SUM149 cells; which protein was precipitated is not told in the main text.

Take “Brahma-related gene 1 (from UniProt P51532 1-1647)”: the binding result with HA-PARP1 wild type, in the assay with HA-PARP1 Y158D and with HA-PARP1 Y158F was “binds” throughout.
Turning to “poly(ADP-ribose) polymerase 1 (from UniProt P09874 1-1014) (enzyme)”, the binding entry in assay [1] and in assay [2] was “binds” in each case.
